Results published in publication PMC12255305, “A transfer RNA methyltransferase with an unusual domain composition catalyzes 2′-O-methylation at position 6 in tRNA” (Nucleic Acids Research, 2025).

Target: T1, TrmTS (TK1257 gene product) (Thermococcus kodakarensis KUW1) (UniProt Q5JGM1)
T1 sequence (looked up, limits assumed): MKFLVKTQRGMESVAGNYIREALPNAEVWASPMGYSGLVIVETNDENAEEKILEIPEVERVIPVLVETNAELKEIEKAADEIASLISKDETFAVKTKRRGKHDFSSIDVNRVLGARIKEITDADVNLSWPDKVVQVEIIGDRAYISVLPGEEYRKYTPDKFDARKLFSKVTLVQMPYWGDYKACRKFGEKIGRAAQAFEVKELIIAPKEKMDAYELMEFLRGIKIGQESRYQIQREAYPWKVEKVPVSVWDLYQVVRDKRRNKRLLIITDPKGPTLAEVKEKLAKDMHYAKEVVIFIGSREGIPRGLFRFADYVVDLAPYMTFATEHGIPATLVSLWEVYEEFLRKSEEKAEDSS
Assay: competition (inhibition of methylation of wild-type tRNA-Trp transcript)
Conditions: SAM, competitor against wild-type tRNA-Trp transcript; recombinant protein

GGGGGCGUGGUGUAGCCUGGUCCAUCAUCGCGGGCUCCAGACCCGCGGACCGGGGUUCAAAUCCCCGCGCCCCC [tRNA-Trp dACCA terminus transcript (-ACCA)]
binding result: no binding

Construct, isoform or probe ends are uncertain for at least one entry. Negatives hold for the conditions tested. Protein sequences can lack the tags named with them.
